Test results published in PMC7181186.
Results are given in words; binding and its absence hold for the method and conditions named. In cells and extracts the contact can be indirect. Binding can be weak; no strength is given. Tags and fused reporters may be left off the sequences shown.

Molecular target: BZR1-GFP (Arabidopsis thaliana)
Experiment: co-IP; N. benthamiana leaves transiently co-expressing the GFP-tagged and the HA-tagged protein; total protein (50 mM HEPES pH 7.5, 1 mM EDTA, 0.5% Triton X-100, 1 mM DTT) precipitated with anti-GFP beads on ice for 30 min, three washes; immunoblot with anti-HA and anti-GFP

binding: binds
B1: HA-ULP1a (enzyme, UniProt Q8GYL3 1-502)
chain: MKNQSRVLNSELGDFDLSVLWDQILNFEGYGSYCFRPMDMDGYHKRSAGLNPCKHSGFSHSSRPMAPGIYRYPEVKSSLRRQVHAPVRILNSGRDRSTRQGSGNVLGTFLTRNNDMWKRNALDSSLRYRTDREVIDVDDELGDVEMISDDTSREGVENVAMEVDEVEEKAEMGNGLFSEVASLKNGSLRVGECSKANSSSLVVNRPVTDVTSFEAYRKVLESAVNRTSKLKDRGFVDFFKERGRALLRSLSSFWRQDEEPVEVVQREAFVPLSREEETAVRRAFSANDSNILVTHKNSNIDITGKILRCLKPGKWLNDEVINLYMVLLKEREAREPKKFLKCHFFNTFFFTKLVNSATGYNYGAVRRWTSMKRLGYHLKDCDKIFIPIHMNIHWTLAVINIKDQKFQYLDSFKGREPKILDALARYFVDEVRDKSEVDLDVSRWRQEFVQDLPMQRNGFDCGMFMVKYIDFYSRGLDLCFTQEQMPYFRARTAKEILQLKAE
